Test results reported in PubChem BioAssay AID651768 (National Center for Advancing Translational Sciences (NCATS), 2012).
The whole screen tested about 360,000 compounds, of which about 1,700 (0.47%) were called active. The inconclusive results got no clear call from the source; some entries with a clear call stand among them for comparison. Calls follow the shape of the dose curve; as a rule, active = well fitted inhibition curve with a large enough effect; inconclusive = small, poorly fitted or top-dose-only effect; inactive = no such curve, though single readings can be large or run the other way. A potency beside an inconclusive call is a rough fit, not a confirmed value.

The chains behind the UniProt entries cited, without tags or fusion partners.
UniProt Q14191, whole entry, looked up: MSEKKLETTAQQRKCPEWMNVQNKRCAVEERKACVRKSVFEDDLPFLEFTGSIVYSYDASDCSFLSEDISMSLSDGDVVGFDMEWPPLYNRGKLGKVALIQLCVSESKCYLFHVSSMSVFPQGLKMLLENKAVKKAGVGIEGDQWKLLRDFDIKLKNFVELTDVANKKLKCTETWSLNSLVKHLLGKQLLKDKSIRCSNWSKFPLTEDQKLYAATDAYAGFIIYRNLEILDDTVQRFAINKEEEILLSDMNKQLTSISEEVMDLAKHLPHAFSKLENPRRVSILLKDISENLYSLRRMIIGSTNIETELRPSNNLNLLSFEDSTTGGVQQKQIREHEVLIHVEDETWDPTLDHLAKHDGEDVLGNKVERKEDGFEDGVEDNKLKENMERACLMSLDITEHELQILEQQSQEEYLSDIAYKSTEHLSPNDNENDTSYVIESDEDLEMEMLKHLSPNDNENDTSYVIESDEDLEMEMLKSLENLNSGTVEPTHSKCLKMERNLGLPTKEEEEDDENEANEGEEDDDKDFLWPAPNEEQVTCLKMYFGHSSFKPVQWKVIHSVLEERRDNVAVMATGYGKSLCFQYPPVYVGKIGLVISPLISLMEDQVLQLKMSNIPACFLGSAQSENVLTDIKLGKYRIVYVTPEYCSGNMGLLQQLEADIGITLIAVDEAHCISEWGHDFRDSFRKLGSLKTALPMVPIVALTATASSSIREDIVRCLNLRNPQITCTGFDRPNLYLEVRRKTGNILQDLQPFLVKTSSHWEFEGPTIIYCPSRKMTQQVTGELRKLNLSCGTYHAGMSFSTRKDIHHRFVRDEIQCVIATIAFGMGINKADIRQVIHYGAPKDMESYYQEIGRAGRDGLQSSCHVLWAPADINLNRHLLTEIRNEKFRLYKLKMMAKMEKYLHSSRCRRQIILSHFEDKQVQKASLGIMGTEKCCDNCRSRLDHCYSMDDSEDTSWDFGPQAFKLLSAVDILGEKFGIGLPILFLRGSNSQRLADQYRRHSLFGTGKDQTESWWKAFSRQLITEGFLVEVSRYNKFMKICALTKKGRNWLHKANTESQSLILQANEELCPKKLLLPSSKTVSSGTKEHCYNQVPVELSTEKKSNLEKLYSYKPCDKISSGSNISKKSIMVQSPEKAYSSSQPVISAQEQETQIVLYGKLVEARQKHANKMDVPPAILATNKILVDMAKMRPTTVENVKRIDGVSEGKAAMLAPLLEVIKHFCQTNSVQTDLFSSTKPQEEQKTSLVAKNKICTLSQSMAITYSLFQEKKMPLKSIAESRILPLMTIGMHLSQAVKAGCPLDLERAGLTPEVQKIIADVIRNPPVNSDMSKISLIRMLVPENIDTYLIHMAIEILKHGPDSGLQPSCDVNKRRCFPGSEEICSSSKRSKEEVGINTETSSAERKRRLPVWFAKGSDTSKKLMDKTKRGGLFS

biological target: Bifunctional 3'-5' exonuclease/ATP-dependent helicase WRN (Homo sapiens) (UniProt Q14191); assay: qHTS for Inhibitors of WRN Helicase; conditions: WRN helicase unwinding, fluorescent forked duplex, kinetic; activity change, negative = inhibition: at 114 µM (top of the series) unless noted; also: nearly all actives have a fitted effect of over 55% in size
Method in brief: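 Screening of the MLSMR collection measured strand separation of a quenched forked DNA duplex (100 nM) by 20 nM WRN with 2 mM ATP, all final. Compounds were preincubated with enzyme 15 min at room temperature.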
% is scaled to controls: 0 for no effect and ±100 for the full control effect; potency is read from the fitted curve at half-maximal effect.

Row | SMILES | Potency | activity change, negative = inhibition
1 | C=CC(=O)N=c1sc2ccccc2n1-c1ccccc1 | inconclusive: 28.2 µM [inhibitor, single point] | –
2 | COc1ccc(CN2CCNC(=O)C2CC(=O)NCc2cccc(C)n2)c(OC)c1 (configuration not stated) | inconclusive: 89.1 µM [inhibitor, single point] | –
3 | Cc1cccc(CC(C)NC(=O)c2cc(COc3ccc(C)c(C)c3)on2)n1 (configuration not stated) | inconclusive: 79.4 µM [inhibitor, single point] | –
4 | CCOC(=O)N1CCN(C(=S)NC(=O)c2cccc(OC)c2)CC1 | inconclusive: 31.6 µM [inhibitor, full curve] | –
5 | CCOC(=O)C(=CNc1ccc(N2CCCCC2)c(S(=O)(=O)Nc2ccccc2OC)c1)C(=O)OCC | inconclusive: 15.8 µM [inhibitor, single point] | –
6 | Cc1csc(NC(=O)c2cc(-c3ccco3)nc3ccccc23)n1 | inconclusive: 13.4 µM [inhibitor, partial curve] | –
7 | O=C1c2ccccc2C(=O)c2c(NCCCN(CCO)CCO)cccc21 | active: 25.1 µM | –
8 | O=C(N[C@@H]1C/C=C\C[C@@H](CC(=O)N(CCO)Cc2ccccc2)C(=O)NCCOC1=O)OCC1c2ccccc2-c2ccccc21 | inactive | –
9 | Cc1cccc2c(=O)n3c(cc12)-c1[nH]c2ccccc2c1CC3 | inconclusive: 12.6 µM [inhibitor, full curve, poor fit] | –
10 | O=C(O)COc1ccccc1/C=C1\C(=O)Nc2ccc(Br)cc21 | inconclusive: 15.8 µM [inhibitor, full curve] | –
11 | COc1ccc2c(c1)c(CC(=O)NCc1cc([N+](=O)[O-])ccc1O)c(C)n2C(=O)c1ccc(Cl)cc1 | inconclusive: 50.1 µM [inhibitor, partial curve] | –
12 | Cc1cccc(C(C)C)c1NC(=O)CSc1cccc[n+]1[O-] | inconclusive: 25.1 µM [inhibitor, full curve, poor fit] | –
13 | Cc1nn(CC(=O)N2CCC(N3CCCCC3)CC2)c(=O)c2c1sc1ccccc12 | inactive | –
14 | Cc1[nH]n(-c2ccccc2)c(=O)c1C(c1cccc([N+](=O)[O-])c1)c1c(C)[nH]n(-c2ccccc2)c1=O | inconclusive: 50.1 µM [inhibitor, partial curve] | –
15 | CC(=O)c1cccc(-n2c(CCC(=O)O)ccc2-c2ccccc2)c1 | inactive | –
16 | NC(=O)c1ccccc1OCc1nnc(-c2ccccc2Br)o1 | inactive | –
17 | C=CCSc1nnc(NC(=O)C2CC(=O)N(c3ccc4c(c3)OCCO4)C2)s1 (configuration not stated) | inactive | –
18 | Cc1cccc2c(N=NC(=O)c3ccc(NS(=O)(=O)c4cccs4)cc3)c(O)[nH]c12 | active: 20 µM | –
19 | Cc1cc(NC(=O)c2cc(-c3ccncc3)nc3c(C)cccc23)no1 | inconclusive: 56.2 µM [inhibitor, partial curve] | –
20 | Cc1cccc(NC(=O)C(C)SCc2nc3sc(C)c(C)c3c(=O)[nH]2)n1 (configuration not stated) | inconclusive: 100 µM [inhibitor, partial curve] | –
21 | O=C1C2C3C=CC(CNS(=O)(=O)c4ccccc4[N+](=O)[O-])(O3)C2C(=O)N1c1ccccc1 (configuration not stated) | inconclusive: 79.4 µM [inhibitor, partial curve] | –
22 | Cc1onc(-c2ccccc2)c1C(=O)c1c[nH]c(C(=O)NCc2ccccn2)c1 | inconclusive: 79.4 µM [inhibitor, single point] | –
23 | CC(OC(=O)c1nc(-c2ccccc2)n(-c2ccccc2)n1)C(=O)Nc1cc(Cl)cc(Cl)c1 (configuration not stated) | inconclusive: 31.6 µM [inhibitor, single point] | –

Row | SMILES | Potency | activity change, negative = inhibition
24 | C/C(=N\NC(=O)c1ccc(NS(=O)(=O)c2cccs2)cc1)c1ccc(O)cc1O | inconclusive: 50.1 µM [inhibitor, partial curve] | –
25 | S=c1ncc2[nH]c(=S)[nH]c2[nH]1 | – | inconclusive: -84.8% [inhibitor]
26 | CCOC(=O)c1cc(S(=O)(=O)Nc2ccc(F)cc2F)cn1C | inactive | –
27 | COc1ccc(NC(=O)CS(=O)(=O)c2cccc(Cl)c2)cc1 | inconclusive: 89.1 µM [inhibitor, single point] | –
28 | CCc1nnc(NS(=O)(=O)c2ccc(NC(=S)NC(=O)/C=C/c3ccc(F)cc3)cc2)s1 | inconclusive: 11.2 µM [inhibitor, partial curve] | –
29 | CCOC(=O)c1c(NC(=O)CSc2nnnn2-c2ccc(OC)cc2)sc(C)c1C | inconclusive: 70.8 µM [inhibitor, single point] | –
30 | N#C/C(=C/c1cccc(O)c1)C(=O)NCc1ccc(Cl)cc1 | inconclusive: 100 µM [inhibitor, partial curve] | –
31 | Cc1ccc(/C=C/C(=O)N2CCc3ccccc32)o1 | inconclusive: 56.2 µM [inhibitor, partial curve] | –
32 | N#C/C(=C\c1ccccc1)C(=O)N(c1ccccn1)C1CCCCC1 | inconclusive: 100 µM [inhibitor, partial curve, poor fit] | –
33 | CCn1c(CSc2n[nH]c(N)n2)nc2cc(C(=O)O)ccc21 | active: 89.1 µM | –
34 | Cc1ccc(S(=O)(=O)N(Cc2ccc(Cl)cc2)c2ccccc2C(=O)NCc2cccnc2)cc1 | inconclusive: 25.1 µM [inhibitor, partial curve] | –
35 | Cc1ccc(OCC(=O)NNc2c3ccccc3nc3ccccc23)cc1 | inconclusive: 56.2 µM [inhibitor, partial curve, poor fit] | –
36 | O=C(N/N=C/c1ccc(N2CCOCC2)o1)c1cccc([N+](=O)[O-])c1 | inconclusive: 79.4 µM [inhibitor, partial curve] | –
37 | Oc1cccc(Nc2nc(O)c(/C=C3\C=Nc4ccccc43)s2)c1 | inconclusive: 35.5 µM [inhibitor, partial curve] | –
38 | Cc1[nH]n(C(N)=S)c(=O)c1N=Nc1ccc2ccccc2c1 | inconclusive: 39.8 µM [inhibitor, single point] | –
39 | O=C(NCc1ccco1)c1cc2ccc(O)cc2oc1=O | inconclusive: 56.2 µM [inhibitor, partial curve] | –
40 | COc1cc2cc3c(N)c(C(=O)NCc4ccco4)sc3nc2cc1OC | inconclusive: 50.1 µM [inhibitor, partial curve] | –
41 | O=c1oc(Cl)c(Cl)c2ccccc12 | inactive | –
42 | CCOC(=O)c1sc(NC(=O)C2=COCCO2)c(C#N)c1C | inactive | –
43 | CCOc1ccc(C(=O)N/N=C/c2cc([N+](=O)[O-])cs2)cc1 | – | inactive: -4.44% [at 11.6 µM]
44 | CC(=O)Nc1ccc(Nc2nc(C)c([N+](=O)[O-])c(N(C)c3ccccc3)n2)cc1 | inconclusive: 3.55 µM [inhibitor, full curve, poor fit] | –
45 | CCN(CC)S(=O)(=O)c1ccc(NC(=O)c2cc(-c3cccs3)nc3ccccc23)cc1 | inconclusive: 39.8 µM [inhibitor, single point] | –
46 | COC(=O)c1ccc(CN(c2ccc(C)cc2)S(=O)(=O)c2ccc3c(c2)OCCO3)o1 | inactive | –

Entries 25 through 26 of the list above:
Row | SMILES | Potency | activity change, negative = inhibition
25 | S=c1ncc2[nH]c(=S)[nH]c2[nH]1 | – | inconclusive: -84.8% [inhibitor]
26 | CCOC(=O)c1cc(S(=O)(=O)Nc2ccc(F)cc2F)cn1C | inactive | –

Continuation.

Row | SMILES | Potency | activity change, negative = inhibition
47 | COc1cc(/C=C2\SC(=Nc3ccccc3OC)NC2=O)ccc1O | inactive | –
48 | O=C1/C(=C\c2ccc(Br)cc2)SC(=S)N1NS(=O)(=O)c1ccccc1 | inconclusive: 79.4 µM [inhibitor, partial curve] | –
49 | O=C(O)CN1C(=O)/C(=C\c2ccccc2OCc2ccc(Cl)cc2Cl)SC1=S | inconclusive: 28.2 µM [inhibitor, single point] | –
50 | O=C(O)c1ccc(-n2c(=O)c3ccccc3c3ccccc3c2=O)cc1 | inconclusive: 31.6 µM [inhibitor, partial curve] | –
51 | Nc1scc2c(C(=O)N/N=C/c3ccc(Cl)cc3)nn(-c3ccccc3)c(=O)c12 | inactive | –
52 | CCCn1c(NC(=O)c2ccc([N+](=O)[O-])o2)nc2ccccc21 | inconclusive: 39.8 µM [inhibitor, single point] | –
53 | CCN1C(=O)/C(=C/c2ccc(N3CCCC3)cc2)NC1=S | inconclusive: 31.6 µM [inhibitor, single point] | –
54 | O=C(CNc1ccccc1C(=O)O)c1ccccc1 | inconclusive: 3.55 µM [inhibitor, full curve, poor fit] | –
55 | O=C(Cn1cccc1C(=O)c1ccccc1)NCc1ccc(Cl)cc1 | inactive | –
56 | CCCCCOc1ccc(C(=O)CCN2CCOCC2)cc1 | inconclusive: 7.94 µM [inhibitor, full curve, poor fit] | –
57 | N#CC(C#N)=C1C=CC=CN1/C(=C\c1ccco1)C(=O)c1ccc(Cl)cc1 | active: 22.4 µM | –
58 | N#Cc1nc(COc2ccc(F)cc2)oc1N1CCCC1 | inactive | –
59 | Oc1c(CN2CCOCC2)cc(-c2ccccc2)cc1CN1CCOCC1 | inactive | –
60 | COc1cc(NC(=O)c2cc(-c3ccccc3Cl)on2)cc(OC)c1OC | inconclusive: 8.91 µM [inhibitor, full curve] | –
61 | C=C1CC(Cn2cc(Br)c(=O)[nH]c2=O)(c2ccc(-c3ccccc3)cc2)OC1=O (configuration not stated) | inconclusive: 2.12 µM [inhibitor, partial curve] | –
62 | Cc1cc2nc3c(=O)n(Cc4ccccc4)c(=O)[nH]c3nc2cc1N | inconclusive: 44.7 µM [inhibitor, partial curve] | –
63 | COc1ccc(C(=S)N2CCN(c3ccccc3C)CC2)cc1OC | inactive | –
64 | CN1CCN(CCCNC(=O)c2cc3c(-c4ccc(Cl)cc4)nn(C)c3s2)CC1 | inactive | –
65 | COc1ccc(CN(C)C(=O)c2cc(S(=O)(=O)Nc3ccccc3F)ccc2C)c(OC)c1 | inactive | –
66 | CCC1=NN2C(=N)/C(=C/c3ccc(OS(=O)(=O)c4ccc(C)cc4)c(OC)c3)C(=O)N=C2S1 | – | inactive: -10.4% [at 11.6 µM]
67 | O=C(O)c1cc(Cl)ccc1-c1ccc(/C=C/c2cc(C(F)(F)F)[nH]c(=O)n2)o1 | inconclusive: 28.2 µM [inhibitor, full curve] | –

Part of the list above, as labelled records.
O=C(O)c1ccc(-n2c(=O)c3ccccc3c3ccccc3c2=O)cc1
  Potency: inconclusive: 31.6 µM [inhibitor, partial curve]
Nc1scc2c(C(=O)N/N=C/c3ccc(Cl)cc3)nn(-c3ccccc3)c(=O)c12
  Potency: inactive
CCCn1c(NC(=O)c2ccc([N+](=O)[O-])o2)nc2ccccc21
  Potency: inconclusive: 39.8 µM [inhibitor, single point]
CCN1C(=O)/C(=C/c2ccc(N3CCCC3)cc2)NC1=S
  Potency: inconclusive: 31.6 µM [inhibitor, single point]
